Data source: PubChem BioAssay AID1224828 (NIAID, 2016)

Test: 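Regulators linking TLR4 signalling to p65 nuclear translocation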 (primary screen)
Cell system: mouse RAW264.7 G9 macrophage reporter cells (GFP-p65, Tnf promoter-mCherry)
Reagents: siRNA pool against mouse genes, 100 nM
Timing: 2 days siRNA transfection, then 40 min LPS before fixation
Conditions: LPS (Salmonella minnesota R595) at 10 ng/ml
Measurement: 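Imaged p65 nuclear translocation ratio, normalised to the plate median, converted to robust z-scores and averaged across two replicates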
Direction: p65 translocation robust z-score: higher = more nuclear NF-kappaB p65 after LPS than the plate median; nuclear/cytoplasmic p65 ratio: higher = more nuclear NF-kappaB p65
Active means: 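Called active when z exceeds 3.3 or falls under -1.56 (median of Tlr4 controls), giving activity score of at least 50; no calls for control wells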
Meaning of the calls: active = hit (p65 shift raised or lowered); inactive = no clear change
This is one part, drawn at random, of about 17,000 reagents. 762 of all reagents (4.5%) count as active. 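Active calls include both raised and lowered p65 entry, mostly lowered; wells with fewer than 50 cells lack a z-score.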 Raw values vary from plate to plate and are shown uncorrected. A number with no mark means an inactive call. Some reagents were tested in more than one well and are listed for each.

| target | p65 translocation robust z-score | nuclear/cytoplasmic p65 ratio, rep 1 | nuclear/cytoplasmic p65 ratio, rep 2 | low cell count flag |
| --- | --- | --- | --- | --- |
| Gale (GeneID 74246) | 0.67 | 1.54 | 1.44 | enough cells to score |
| Vmn1r73 (GeneID 171237) | – | 1.08 | 1.14 | fewer than 50 cells per well; well left out of scoring |
| Cep72 (GeneID 74470) | -0.81 | 1.22 | 1.39 | enough cells to score |
| Pla2g4e (GeneID 329502) | -1.01 | 1.22 | 1.2 | enough cells to score |
| Mrpl49 (GeneID 18120) | 0.93 | 2.04 | 1.64 | enough cells to score |
| Ms4a13 (GeneID 73466) | 0.83 | 1.35 | 1.68 | enough cells to score |
| H2al1m (GeneID 76383) | – | 1.5 | 1.41 | fewer than 50 cells per well; well left out of scoring |
| Krtap14 (GeneID 23927) | -0.5 | 1.35 | 1.49 | enough cells to score |
| Ppm1j (GeneID 71887) | 0.91 | 1.65 | 1.5 | enough cells to score |
| Cep83 (GeneID 77048) | – | 1.22 | 1.21 | fewer than 50 cells per well; well left out of scoring |
| Dnajc3 (GeneID 100037258) | -0.13 | 1.61 | 1.42 | enough cells to score |
| Kdm4d (GeneID 244694) | – | 1.03 | 1.31 | fewer than 50 cells per well; well left out of scoring |
| Tpt1 (GeneID 22070) | – | 1.7 | 1.35 | fewer than 50 cells per well; well left out of scoring |
| Satb2 (GeneID 212712) | -0.23 | 1.39 | 1.12 | enough cells to score |
| 1700024B05Rik (GeneID 100503856) | 1.16 | 1.44 | 1.57 | enough cells to score |
| Mdh1 (GeneID 17449) | – | 1.72 | 1.58 | fewer than 50 cells per well; well left out of scoring |
| Or8d4 (GeneID 258854) | 0.37 | 1.51 | 1.27 | enough cells to score |
| Scg2 (GeneID 20254) | 1.18 | 1.54 | 1.82 | enough cells to score |
| Lce1d (GeneID 69611) | 0.39 | 1.5 | 1.25 | enough cells to score |
| Or8b36 (GeneID 258414) | 1.06 | 1.53 | 1.44 | enough cells to score |
| Slc35f3 (GeneID 210027) | – | 1.69 | 1.09 | fewer than 50 cells per well; well left out of scoring |
| Magel2 (GeneID 27385) | 2 | 1.96 | 1.9 | enough cells to score |
| Noxa1 (GeneID 241275) | 1.23 | 1.96 | 1.66 | enough cells to score |
| Dcx (GeneID 13193) | – | 1.65 | 1.92 | fewer than 50 cells per well; well left out of scoring |
| Tbx15 (GeneID 21384) | -0.26 | 1.31 | 1.18 | enough cells to score |
| Aff3 (GeneID 16764) | -0.44 | 1.35 | 1.38 | enough cells to score |
| Josd2 (GeneID 66124) | -0.35 | 1.39 | 1.5 | enough cells to score |
| Bik (GeneID 12124) | 1.33 | 1.78 | 1.84 | enough cells to score |
| Sptbn1 (GeneID 20742) | 1.07 | 1.58 | 1.33 | enough cells to score |
| Tprn (GeneID 97031) | 1.54 | 1.68 | 1.7 | enough cells to score |
| Pdss1 (GeneID 56075) | – | 1.44 | 1.3 | fewer than 50 cells per well; well left out of scoring |
| 2810025M15Rik (GeneID 69953) | 2.08 | 1.68 | 1.73 | enough cells to score |
| Zdhhc20 (GeneID 75965) | – | 1.38 | 1.21 | fewer than 50 cells per well; well left out of scoring |
| Kcnmb2 (GeneID 72413) | 0.7 | 1.67 | 1.51 | enough cells to score |

The list goes on, starting with the last 8 of the part before.
| target | p65 translocation robust z-score | nuclear/cytoplasmic p65 ratio, rep 1 | nuclear/cytoplasmic p65 ratio, rep 2 | low cell count flag |
| --- | --- | --- | --- | --- |
| Josd2 (GeneID 66124) | -0.35 | 1.39 | 1.5 | enough cells to score |
| Bik (GeneID 12124) | 1.33 | 1.78 | 1.84 | enough cells to score |
| Sptbn1 (GeneID 20742) | 1.07 | 1.58 | 1.33 | enough cells to score |
| Tprn (GeneID 97031) | 1.54 | 1.68 | 1.7 | enough cells to score |
| Pdss1 (GeneID 56075) | – | 1.44 | 1.3 | fewer than 50 cells per well; well left out of scoring |
| 2810025M15Rik (GeneID 69953) | 2.08 | 1.68 | 1.73 | enough cells to score |
| Zdhhc20 (GeneID 75965) | – | 1.38 | 1.21 | fewer than 50 cells per well; well left out of scoring |
| Kcnmb2 (GeneID 72413) | 0.7 | 1.67 | 1.51 | enough cells to score |
| Rttn (GeneID 246102) | – | 1.48 | 1.26 | fewer than 50 cells per well; well left out of scoring |
| Ift20 (GeneID 55978) | 0.29 | 1.49 | 1.57 | enough cells to score |
| Ttc34 (GeneID 242800) | 0.17 | 1.55 | 1.62 | enough cells to score |
| Stk17b (GeneID 98267) | 0.68 | 2.34 | 1.47 | enough cells to score |
| Ing1 (GeneID 26356) | -0.62 | 1.4 | 1.29 | enough cells to score |
| Cntrob (GeneID 216846) | -1.11 | 1.32 | 1.34 | enough cells to score |
| A730085E03Rik (GeneID 100504650) | 0.22 | 1.43 | 1.54 | enough cells to score |
| Pcsk4 (GeneID 18551) | – | 1.28 | 1.06 | fewer than 50 cells per well; well left out of scoring |
| Eid3 (GeneID 66341) | 2.76 | 1.73 | 1.8 | enough cells to score |
| Psma6 (GeneID 26443) | – | 1.36 | 1.12 | fewer than 50 cells per well; well left out of scoring |
| Slc19a3 (GeneID 80721) | – | 1.41 | 1.29 | fewer than 50 cells per well; well left out of scoring |
| Alas2 (GeneID 11656) | 0.06 | 1.66 | 1.6 | enough cells to score |
| Ephx3 (GeneID 71932) | -0.06 | 1.58 | 1.63 | enough cells to score |
| Npr1 (GeneID 18160) | 0.16 | 1.77 | 1.35 | enough cells to score |
| Npr1 (GeneID 18160) | 0.82 | 1.64 | 1.69 | enough cells to score |
| Armcx2 (GeneID 67416) | -0.44 | 1.47 | 1.65 | enough cells to score |
| Ppm1f (GeneID 68606) | 0.84 | 1.62 | 1.51 | enough cells to score |
| Trem3 (GeneID 58218) | 0.55 | 1.43 | 1.26 | enough cells to score |
| Vmn1r15 (GeneID 113863) | 0.74 | 1.34 | 1.31 | enough cells to score |
| Ldlrad3 (GeneID 241576) | 1.74 | 1.84 | 1.42 | enough cells to score |
| Ripor1 (GeneID 75687) | -0.98 | 1.23 | 1.05 | enough cells to score |
| Adarb2 (GeneID 94191) | -1 | 1.44 | 1.54 | enough cells to score |
| Ift122 (GeneID 81896) | 0.69 | 1.63 | 1.68 | enough cells to score |
| Msn (GeneID 17698) | -2.18 (active) | 1.19 | 1.08 | enough cells to score |
| Krt9 (GeneID 107656) | -0.05 | 1.5 | 1.35 | enough cells to score |
